No constants are given. Whether binding was seen depends on the method and setting. In cells and extracts the contact can be indirect. For some assays here: Binding calls can cover weak binding; strength is not graded here. Tags and fused reporters may be left off the sequences shown.

Protein sequences, listed by entry. Tags and fused reporters are not part of them. Lines headed by an entry give the natural chain unless they say otherwise; changes in a name come on top.
UniProt P55085: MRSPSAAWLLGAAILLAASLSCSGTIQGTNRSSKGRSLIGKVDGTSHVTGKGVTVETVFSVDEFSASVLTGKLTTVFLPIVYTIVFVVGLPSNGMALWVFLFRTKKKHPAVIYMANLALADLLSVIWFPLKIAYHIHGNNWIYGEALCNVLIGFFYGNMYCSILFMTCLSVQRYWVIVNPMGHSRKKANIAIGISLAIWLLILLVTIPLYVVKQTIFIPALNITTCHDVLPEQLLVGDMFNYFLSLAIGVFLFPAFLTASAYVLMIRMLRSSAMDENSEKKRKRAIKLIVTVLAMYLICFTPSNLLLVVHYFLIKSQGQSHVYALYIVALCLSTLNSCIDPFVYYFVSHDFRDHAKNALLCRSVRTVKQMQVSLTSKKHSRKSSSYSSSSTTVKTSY

The target of experiment [1] is T1, GST-PH-Vav3 (UniProt Q9UKW4).
T1 sequence: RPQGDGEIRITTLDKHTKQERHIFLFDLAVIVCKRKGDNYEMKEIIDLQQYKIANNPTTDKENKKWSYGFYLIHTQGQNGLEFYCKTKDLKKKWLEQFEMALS
In words: pull-down; GST-PH-Akt or GST-PH-Vav3 beads; lysates of cells that do not express Etk/Bmx (HEK 293T, HCT116); PAR2 detected with SAM11; only the target purified.

For experiment [2], the target named is T1, GST-PH-Vav3. In words: condition: only lysates of HEK293T cells overexpressing Etk/Bmx (0.5–2 μg plasmid); pull-down; GST-PH-Akt or GST-PH-Vav3 beads; lysates of HEK293T cells overexpressing etk/bmx plasmid (0.5–2 μg); PAR2 detected with SAM11; only the target purified.
For experiment [3], the target named is T1, GST-PH-Vav3. Nature of the experiment: pull-down; lysates of HEK293T cells overexpressing PAR2 mutants or deletion constructs added to GST-PH-Etk/Bmx, GST-PH-Akt or GST-PH-Vav3; only the target purified.

With “wild-type human Par2 (wt hPar2) (from UniProt P55085) (receptor)”, the binding result is recorded as “binds” in experiment [1], “no binding” in experiment [2] and “binds” in experiment [3].

As to “hPar2 mutant R352A (from UniProt P55085) (receptor)”, the binding entry in experiment [3] is “binds”.

For the substance “hPar2 mutant H349A (from UniProt P55085) (receptor)”, in experiment [3], the binding result is “no binding”.

The values are drawn from article PMC4673491.
